Data on two substances can be found in publication PMC10005955.

Protein sequences, listed by entry. Tags and fused reporters are not part of them.
UniProt Q9UHY1: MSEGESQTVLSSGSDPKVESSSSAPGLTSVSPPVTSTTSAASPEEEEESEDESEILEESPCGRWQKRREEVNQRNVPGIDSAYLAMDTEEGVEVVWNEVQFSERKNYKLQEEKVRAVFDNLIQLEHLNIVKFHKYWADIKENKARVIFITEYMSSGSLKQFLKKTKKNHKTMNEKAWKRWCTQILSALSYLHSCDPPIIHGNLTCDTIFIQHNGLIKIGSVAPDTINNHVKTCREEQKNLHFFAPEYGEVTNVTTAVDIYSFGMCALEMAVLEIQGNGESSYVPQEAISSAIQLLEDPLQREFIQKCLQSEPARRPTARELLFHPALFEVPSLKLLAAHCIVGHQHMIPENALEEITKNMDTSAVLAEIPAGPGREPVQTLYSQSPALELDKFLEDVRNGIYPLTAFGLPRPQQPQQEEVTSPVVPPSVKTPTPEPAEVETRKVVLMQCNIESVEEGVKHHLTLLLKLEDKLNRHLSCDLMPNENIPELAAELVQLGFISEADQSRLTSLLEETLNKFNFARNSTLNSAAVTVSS
UniProt Q8TCU6: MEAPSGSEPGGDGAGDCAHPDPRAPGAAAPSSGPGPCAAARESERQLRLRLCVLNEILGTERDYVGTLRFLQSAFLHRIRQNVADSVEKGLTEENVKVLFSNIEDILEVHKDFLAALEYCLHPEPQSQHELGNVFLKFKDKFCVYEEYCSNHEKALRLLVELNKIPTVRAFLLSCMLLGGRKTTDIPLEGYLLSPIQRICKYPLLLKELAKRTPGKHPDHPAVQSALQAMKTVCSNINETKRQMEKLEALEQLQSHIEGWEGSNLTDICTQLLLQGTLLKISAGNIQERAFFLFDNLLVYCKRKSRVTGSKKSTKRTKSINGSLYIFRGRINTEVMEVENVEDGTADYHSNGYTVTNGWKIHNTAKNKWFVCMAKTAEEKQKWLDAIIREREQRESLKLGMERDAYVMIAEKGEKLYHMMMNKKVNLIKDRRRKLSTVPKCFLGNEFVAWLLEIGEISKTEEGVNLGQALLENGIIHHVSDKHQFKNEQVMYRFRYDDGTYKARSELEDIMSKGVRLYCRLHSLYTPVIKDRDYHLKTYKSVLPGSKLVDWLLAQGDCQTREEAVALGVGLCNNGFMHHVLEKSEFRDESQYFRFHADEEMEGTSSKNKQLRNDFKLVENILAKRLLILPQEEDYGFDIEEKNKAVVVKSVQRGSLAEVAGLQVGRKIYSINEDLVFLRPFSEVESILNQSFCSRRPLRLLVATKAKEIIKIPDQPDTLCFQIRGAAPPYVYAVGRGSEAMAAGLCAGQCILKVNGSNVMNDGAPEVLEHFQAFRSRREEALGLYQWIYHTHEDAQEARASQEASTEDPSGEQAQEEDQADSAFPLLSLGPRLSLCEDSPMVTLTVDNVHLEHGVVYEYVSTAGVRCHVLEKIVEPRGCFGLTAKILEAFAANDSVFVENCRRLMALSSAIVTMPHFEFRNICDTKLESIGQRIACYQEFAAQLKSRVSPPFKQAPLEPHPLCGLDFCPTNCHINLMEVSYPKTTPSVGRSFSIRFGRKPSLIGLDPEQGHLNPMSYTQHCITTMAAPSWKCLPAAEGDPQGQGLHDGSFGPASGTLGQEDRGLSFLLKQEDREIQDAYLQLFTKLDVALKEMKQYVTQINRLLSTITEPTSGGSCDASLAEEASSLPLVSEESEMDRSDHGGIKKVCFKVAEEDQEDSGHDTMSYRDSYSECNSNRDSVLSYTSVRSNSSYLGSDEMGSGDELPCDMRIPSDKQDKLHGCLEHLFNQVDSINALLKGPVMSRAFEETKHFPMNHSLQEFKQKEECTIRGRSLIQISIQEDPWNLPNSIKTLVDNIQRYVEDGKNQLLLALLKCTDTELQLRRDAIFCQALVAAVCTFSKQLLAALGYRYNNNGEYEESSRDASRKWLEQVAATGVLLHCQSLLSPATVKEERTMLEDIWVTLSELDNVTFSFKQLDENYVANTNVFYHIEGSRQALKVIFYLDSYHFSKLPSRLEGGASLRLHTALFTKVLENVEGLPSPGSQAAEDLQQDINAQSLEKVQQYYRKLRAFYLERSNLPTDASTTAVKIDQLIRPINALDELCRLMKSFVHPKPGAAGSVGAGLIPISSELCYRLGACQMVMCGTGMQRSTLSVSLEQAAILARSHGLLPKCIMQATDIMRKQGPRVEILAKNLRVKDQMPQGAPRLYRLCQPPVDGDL
UniProt P60953: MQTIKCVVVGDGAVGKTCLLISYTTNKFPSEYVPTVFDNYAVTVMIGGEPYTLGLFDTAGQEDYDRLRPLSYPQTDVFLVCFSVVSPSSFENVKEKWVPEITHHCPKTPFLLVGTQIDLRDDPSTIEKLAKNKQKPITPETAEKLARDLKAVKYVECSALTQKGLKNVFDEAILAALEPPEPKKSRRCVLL

These are yes or no findings as the source states them, for the method shown. In cells and extracts the contact can be indirect. Some results given as binding are weak or reduced against the parent protein; the word gives no strength.

The target of the assay is Flag-tagged NRBP1 (UniProt Q9UHY1). The assay is described as follows: co-IP; Flag-tagged NRBP1 transfected into MFM-223 cells; lysate in normal lysis buffer; anti-FLAG M2 affinity-agarose beads at 4 °C for 2-4 h; Western blotting for endogenous proteins. (In western blotting, separated proteins are transferred to a membrane and probed.)

Turning to P-Rex1 (from UniProt Q8TCU6 1-1659), the binding result is on record as “binds”.
Take Cdc42 (from UniProt P60953 1-191): the binding result is reported as “binds”.
